The experiment relates to HEK293A TEAD-LUC reporter. As to the kind of experiment: TEAD-luciferase reporter activity (YAP activation), robust Z score vs plate; higher = stronger YAP/TEAD activation. The conditions noted are these: 24 h.

Where a name gives a salt, the structure may show the parent alone. The list shows a part of the results. Single values are uncertain here, since repeats match poorly.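 In a drug-repurposing library screen, luminescence reads luciferase driven by eight TEAD-binding elements, stably integrated into human kidney-derived cells. Compounds scoring over five robust Z scores above the plate mean are called hits.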

With `CN1C(=O)COc2c(C(=O)NC3CN4CCC3CC4)cc(Cl)cc21` (stereo unspecified) [Azasetron hydrochloride], for the setting “compound concentration: 2 uM”, the TEAD-luciferase reporter activity was inactive: -1.16.
In the case of `CN1C(=O)COc2c(C(=O)NC3CN4CCC3CC4)cc(Cl)cc21` (stereo unspecified) [Azasetronn/a], the TEAD-luciferase reporter activity is inactive: -0.953 (compound concentration: 200 nM) and inactive: 1.25 (compound concentration: 10 uM).
For `O=C1Nc2ccccc2C12CCN(CC1CC1)CC2`, the TEAD-luciferase reporter activity runs as follows: (compound concentration: 200 nM) inactive: -3.26; (compound concentration: 10 uM) inactive: 0.681.
The like results for `O=P1(N(CCCl)CCCl)NCCCO1` (stereo unspecified) [Cytoxan6055-19-2] were, in that order, inactive: -0.0544 and inactive: 0.943.
As to `O=P1(N(CCCl)CCCl)NCCCO1` (stereo unspecified) [Cyclophosphamide], the TEAD-luciferase reporter activity (compound concentration: 2 uM) was inactive: -1.68.
With `O=P1(N(CCCl)CCCl)NCCCO1` (stereo unspecified) [Cyclophosphamide monohydrate], the TEAD-luciferase reporter activity (compound concentration: 2 uM) was inactive: 0.104.
With `C#Cc1cncc([C@@H]2CCCN2C)c1` [Altinicline maleate], the TEAD-luciferase reporter activity (compound concentration: 200 nM) was inactive: 0.278, the TEAD-luciferase reporter activity (compound concentration: 2 uM) is inactive: 1.19 and the TEAD-luciferase reporter activity (compound concentration: 10 uM) was inactive: 1.44.
The like results for `O=C(NC(=O)c1c(F)cccc1F)Nc1cc(Cl)c(OC(F)(F)C(F)C(F)(F)F)cc1Cl` (stereo unspecified) [Lufenuron] were, in that order, inactive: 1.81, inactive: -1.14 and inactive: 3.39.
In the case of `CCN1CCCCC12Cc1ccccc1CN(C(=O)Cc1ccccc1)C2` (stereo unspecified), the TEAD-luciferase reporter activity by setting is: (compound concentration: 200 nM) inactive: -1.23; (compound concentration: 10 uM) inactive: -0.761.
For the compound `CCOC(=O)C1(c2cccc(O)c2)CCN(C)CC1` [Hydroxypethidine], the TEAD-luciferase reporter activity by setting is: (compound concentration: 200 nM) inactive: 1.14; (compound concentration: 2 uM) inactive: 0.586; (compound concentration: 10 uM) inactive: 0.0129.
For the compound `c1cc2c(c(NC3=NCCN3)c1)CCCC2`, the TEAD-luciferase reporter activity is inactive: -0.603 (compound concentration: 200 nM), inactive: -2.32 (compound concentration: 2 uM) and inactive: 1.26 (compound concentration: 10 uM).
Taken in the same sequence, the figures for `C[C@@]12CCCCC[C@@H](Cc3ccc(O)cc31)[C@@H]2N` [dezocine] were inactive: -0.868, inactive: -0.608 and inactive: 0.801.
Taken in the same sequence, the figures for `COc1ccc2c(c1)C1CCCNC1CO2` (stereo unspecified) were inactive: 0.268, inactive: -0.599 and inactive: -0.475.
`C/C=C/C1(C(C)C#CCC)C(=O)N=C([O-])N(C)C1=O` (stereo unspecified) [Methohexital]: the TEAD-luciferase reporter activity was inactive: -1.1 (compound concentration: 200 nM), inactive: -0.595 (compound concentration: 2 uM) and inactive: -0.338 (compound concentration: 10 uM).
As to `CCCC(C(=O)c1ccc(C)cc1)N1CCCC1` (stereo unspecified) [Pyrovalerone HCl], the TEAD-luciferase reporter activity is inactive: -0.0254 (compound concentration: 200 nM) and inactive: -0.963 (compound concentration: 10 uM).
With `C=CC(C)NC(=S)NNC(=S)NC` (stereo unspecified) [Metallibure], the TEAD-luciferase reporter activity (compound concentration: 200 nM) is inactive: -0.162, the TEAD-luciferase reporter activity (compound concentration: 2 uM) is inactive: -0.49 and the TEAD-luciferase reporter activity (compound concentration: 10 uM) was inactive: -2.16.
The like results for `CCCCNCC(O)c1ccc(O)cc1` (stereo unspecified) were, in that order, inactive: -1.06, inactive: -0.559 and inactive: -0.329.
Taken in the same sequence, the figures for `O=C(O)c1nn(Cc2ccc(Cl)cc2Cl)c2ccccc12` [lonidamine] were inactive: -1.22, inactive: -0.46 and inactive: -0.477.
The like results for `Cc1nc2ccccn2c(=O)c1CCN1CCC(Nc2nc3cccnc3n2Cc2ccco2)CC1` were, in that order, inactive: -0.951, inactive: -0.264 and inactive: 1.54.
Turning to `CCCCCCCCCC(=O)O[C@H]1CC[C@H]2[C@@H]3CCC4=CC(=O)CC[C@]4(C)[C@H]3CC[C@]12C`, the TEAD-luciferase reporter activity was inactive: -1.4 (compound concentration: 200 nM), inactive: 4.84 (compound concentration: 2 uM) and inactive: -0.36 (compound concentration: 10 uM).
Taken in the same sequence, the figures for `Cc1cc(N(C)C)ccc1CC(C)N` (stereo unspecified) [amiflamine] were inactive: -1.63, inactive: -1.66 and inactive: -1.28.
Taken in the same sequence, the figures for `Cc1nnc2n1-c1sc(CCc3ccc(CC(C)C)cc3)cc1C(c1ccccc1Cl)=NC2C` (stereo unspecified) [Israpafant] were active: 6.56, inactive: -0.362 and inactive: -0.697.
Turning to `CC1(C)C(=O)N(c2ccc(C#N)c(C(F)(F)F)c2)C(=O)N1CCCCO`, the TEAD-luciferase reporter activity is inactive: -1.08 (compound concentration: 200 nM), inactive: -0.992 (compound concentration: 2 uM) and inactive: -1.38 (compound concentration: 10 uM).
Taken in the same sequence, the figures for `CN(C(=O)CN(CCO)CCO)c1ccc(Cl)cc1C(=O)c1ccccc1Cl` were inactive: -0.913, inactive: -0.873 and inactive: 1.34.
For `CC(C)(C)NCC(O)c1ccc(O)c(O)c1` (stereo unspecified) [Colterol], the TEAD-luciferase reporter activity reads like this: (compound concentration: 200 nM) inactive: -0.247; (compound concentration: 2 uM) inactive: 0.0213; (compound concentration: 10 uM) inactive: -0.193.
For `O=C(NCc1cccnc1)c1cnc(Nc2cccc(Cl)c2)nc1C(F)(F)F`, the TEAD-luciferase reporter activity runs as follows: (compound concentration: 200 nM) inactive: 0.0351; (compound concentration: 2 uM) inactive: -0.224; (compound concentration: 10 uM) inactive: 0.294.
Regarding `N#Cc1cncc(N2CC3CCC(C2)N3CC(F)(F)F)c1`, the TEAD-luciferase reporter activity is, setting by setting: (compound concentration: 200 nM) inactive: -0.937; (compound concentration: 10 uM) inactive: 1.87.
On to `CN(C(=O)CNC1CC1)c1ccc(Cl)cc1C(=O)c1ccccc1Cl` [ciprazafone], for which the TEAD-luciferase reporter activity (compound concentration: 200 nM) was inactive: -0.608, the TEAD-luciferase reporter activity (compound concentration: 2 uM) is inactive: -0.633 and the TEAD-luciferase reporter activity (compound concentration: 10 uM) is inactive: -1.68.
Taken in the same sequence, the figures for `NCCc1ccccc1Sc1c[nH]c2cc(F)ccc12` were inactive: -0.598, inactive: -0.856 and inactive: -0.532.
For `Oc1ccc(Cl)cc1Cc1ccccc1`, the TEAD-luciferase reporter activity reads like this: (compound concentration: 200 nM) inactive: -1.14; (compound concentration: 2 uM) inactive: -2.22; (compound concentration: 10 uM) inactive: 0.0333.
Taken in the same sequence, the figures for `C[N+]12CCC(CC1)C(OC(=O)C(O)(c1ccccc1)c1ccccc1)C2` (stereo unspecified) [Clidinium bromide] were inactive: -1.29, inactive: 1.11 and inactive: -1.01.

For the origin of these results see the supplement of paper PMC10735217.
